Source: patent publication US20100239587A1
No constants are given. Whether binding was seen depends on the method and setting. Some entries that bind do so weakly or less than the wild type.

The chains behind the UniProt entries cited, without tags or fusion partners. Residues count along the entry.
UniProt P21860, residues 20-643: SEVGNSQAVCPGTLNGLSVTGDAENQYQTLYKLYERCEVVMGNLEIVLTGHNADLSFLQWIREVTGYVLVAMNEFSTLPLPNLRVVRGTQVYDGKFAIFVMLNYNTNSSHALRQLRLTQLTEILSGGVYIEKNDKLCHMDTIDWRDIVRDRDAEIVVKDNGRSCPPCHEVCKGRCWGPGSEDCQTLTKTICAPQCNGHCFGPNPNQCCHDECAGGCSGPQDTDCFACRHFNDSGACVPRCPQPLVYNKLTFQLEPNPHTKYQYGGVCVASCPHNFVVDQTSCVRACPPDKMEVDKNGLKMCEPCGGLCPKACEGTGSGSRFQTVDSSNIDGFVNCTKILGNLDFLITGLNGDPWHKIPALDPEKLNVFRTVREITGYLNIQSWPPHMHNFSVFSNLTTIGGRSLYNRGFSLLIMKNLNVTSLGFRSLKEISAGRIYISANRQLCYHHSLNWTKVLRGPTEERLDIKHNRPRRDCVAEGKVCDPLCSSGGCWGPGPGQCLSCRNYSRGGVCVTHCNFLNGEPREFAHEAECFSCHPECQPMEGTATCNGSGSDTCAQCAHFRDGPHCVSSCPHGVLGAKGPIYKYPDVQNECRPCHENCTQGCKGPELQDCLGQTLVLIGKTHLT

What was measured:
[1] = biological target: ErbB2 extracellular domain (recombinant) (UniProt P04626); test: SPR, receptor immobilized, peptide injected
[2] = biological target: ErbB1 extracellular domain (recombinant, soluble) (UniProt P00533); test: SPR, receptor immobilized, peptide injected
[3] = biological target: ErbB3 extracellular domain (recombinant, soluble) (UniProt P21860); test: SPR, receptor immobilized, peptide injected
[4] = biological target: erbB2-SbdIV (GST fusion protein of subdomain IV of erbB2) (UniProt P04626); test: SPR, erbB2-SbdIV immobilized, peptide injected

Measured: binding

YCFPDEEGACY (cyclized by disulfide bond between the two cysteines (air oxidation)) [B2-S22-AFA]
binds: all assays above

YCPIWKFPDEECY (cyclized by disulfide bond between the two cysteines (air oxidation)) [B2-S22-APE]
binds: [1] | [2] | [3]

YCLVWKYADAGCY (cyclized by disulfide bond between the two cysteines (air oxidation)) [B1-S22-ALG]
binds: all assays above

YCPIYKYPDVQCY (cyclized by disulfide bond between the two cysteines (air oxidation)) [B3-S22-APQ]
binds: all assays above

YCFIFKYADPDCY (cyclized by disulfide bond between the two cysteines (air oxidation)) [B4-S22-AFD]
binds: all assays above
